Assay results as given in article PMC3540053.
Results are given in words; binding and its absence hold for the method and conditions named.

T1: OsCOI1a (Oryza sativa) (UniProt Q6Y9P5)
T1 sequence: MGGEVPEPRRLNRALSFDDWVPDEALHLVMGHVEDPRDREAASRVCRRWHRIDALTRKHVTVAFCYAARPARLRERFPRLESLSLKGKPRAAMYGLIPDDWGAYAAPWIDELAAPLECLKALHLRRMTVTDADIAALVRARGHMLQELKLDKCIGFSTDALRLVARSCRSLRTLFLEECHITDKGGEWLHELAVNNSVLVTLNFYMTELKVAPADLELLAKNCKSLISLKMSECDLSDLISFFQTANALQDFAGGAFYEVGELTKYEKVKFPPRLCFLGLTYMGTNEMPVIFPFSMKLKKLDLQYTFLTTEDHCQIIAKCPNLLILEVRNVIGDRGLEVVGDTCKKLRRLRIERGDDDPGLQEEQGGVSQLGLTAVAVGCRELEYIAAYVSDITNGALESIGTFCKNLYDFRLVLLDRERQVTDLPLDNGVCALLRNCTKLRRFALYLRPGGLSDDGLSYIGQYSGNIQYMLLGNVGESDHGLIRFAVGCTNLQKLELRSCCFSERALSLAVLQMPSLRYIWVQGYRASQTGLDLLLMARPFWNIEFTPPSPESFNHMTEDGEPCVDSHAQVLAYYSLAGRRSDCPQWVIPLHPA

T2: OsCOI1a(N475Y) (Oryza sativa) (UniProt Q6Y9P5)
T2 sequence: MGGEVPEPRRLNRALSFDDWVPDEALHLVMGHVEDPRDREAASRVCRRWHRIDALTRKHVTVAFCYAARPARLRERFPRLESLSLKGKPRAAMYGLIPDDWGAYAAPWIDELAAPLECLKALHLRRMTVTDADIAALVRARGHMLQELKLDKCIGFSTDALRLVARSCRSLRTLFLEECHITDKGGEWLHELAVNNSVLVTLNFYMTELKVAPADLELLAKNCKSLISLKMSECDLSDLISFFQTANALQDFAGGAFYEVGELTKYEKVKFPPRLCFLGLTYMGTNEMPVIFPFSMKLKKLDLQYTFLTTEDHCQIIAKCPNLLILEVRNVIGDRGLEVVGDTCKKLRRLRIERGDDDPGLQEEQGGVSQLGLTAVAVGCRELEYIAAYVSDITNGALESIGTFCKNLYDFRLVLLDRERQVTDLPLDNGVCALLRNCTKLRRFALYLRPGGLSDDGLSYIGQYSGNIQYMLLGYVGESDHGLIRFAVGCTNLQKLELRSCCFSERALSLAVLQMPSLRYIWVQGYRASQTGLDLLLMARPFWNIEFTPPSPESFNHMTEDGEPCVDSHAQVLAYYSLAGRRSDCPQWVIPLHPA

T3: OsCOI2 (Oryza sativa) (UniProt Q84QA7)
T3 sequence: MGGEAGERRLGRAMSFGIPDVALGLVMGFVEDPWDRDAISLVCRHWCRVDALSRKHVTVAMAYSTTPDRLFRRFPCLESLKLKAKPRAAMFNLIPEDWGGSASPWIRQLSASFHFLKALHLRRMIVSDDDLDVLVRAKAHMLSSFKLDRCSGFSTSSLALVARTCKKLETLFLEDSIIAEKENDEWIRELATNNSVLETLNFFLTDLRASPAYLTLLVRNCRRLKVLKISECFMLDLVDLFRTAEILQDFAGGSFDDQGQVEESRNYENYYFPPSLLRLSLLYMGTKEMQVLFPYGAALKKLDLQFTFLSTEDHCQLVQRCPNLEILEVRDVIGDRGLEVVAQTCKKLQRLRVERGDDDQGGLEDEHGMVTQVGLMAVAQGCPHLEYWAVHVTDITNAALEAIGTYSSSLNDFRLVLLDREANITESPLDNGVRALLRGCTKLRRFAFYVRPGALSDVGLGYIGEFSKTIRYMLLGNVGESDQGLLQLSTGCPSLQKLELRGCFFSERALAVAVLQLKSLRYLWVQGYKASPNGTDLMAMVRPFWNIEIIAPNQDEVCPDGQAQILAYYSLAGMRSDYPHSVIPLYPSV

T4: OsCOI2(H391Y) (Oryza sativa) (UniProt Q84QA7)
T4 sequence: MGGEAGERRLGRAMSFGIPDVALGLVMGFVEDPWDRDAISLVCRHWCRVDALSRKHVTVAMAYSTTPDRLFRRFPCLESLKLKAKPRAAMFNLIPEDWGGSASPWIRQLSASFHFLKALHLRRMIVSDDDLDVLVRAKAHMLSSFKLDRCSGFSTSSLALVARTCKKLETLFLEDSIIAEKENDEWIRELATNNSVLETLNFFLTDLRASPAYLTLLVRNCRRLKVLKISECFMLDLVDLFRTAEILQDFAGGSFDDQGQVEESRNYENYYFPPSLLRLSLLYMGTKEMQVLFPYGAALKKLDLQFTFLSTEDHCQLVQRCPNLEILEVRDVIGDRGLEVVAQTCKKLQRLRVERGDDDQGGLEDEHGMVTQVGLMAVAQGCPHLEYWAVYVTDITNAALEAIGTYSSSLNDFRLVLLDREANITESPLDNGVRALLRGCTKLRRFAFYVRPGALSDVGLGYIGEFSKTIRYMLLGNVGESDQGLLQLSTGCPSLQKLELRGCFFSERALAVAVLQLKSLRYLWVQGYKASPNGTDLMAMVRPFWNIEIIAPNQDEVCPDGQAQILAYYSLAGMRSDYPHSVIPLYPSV

T5: OsCOI2(N477Y) (Oryza sativa) (UniProt Q84QA7)
T5 sequence: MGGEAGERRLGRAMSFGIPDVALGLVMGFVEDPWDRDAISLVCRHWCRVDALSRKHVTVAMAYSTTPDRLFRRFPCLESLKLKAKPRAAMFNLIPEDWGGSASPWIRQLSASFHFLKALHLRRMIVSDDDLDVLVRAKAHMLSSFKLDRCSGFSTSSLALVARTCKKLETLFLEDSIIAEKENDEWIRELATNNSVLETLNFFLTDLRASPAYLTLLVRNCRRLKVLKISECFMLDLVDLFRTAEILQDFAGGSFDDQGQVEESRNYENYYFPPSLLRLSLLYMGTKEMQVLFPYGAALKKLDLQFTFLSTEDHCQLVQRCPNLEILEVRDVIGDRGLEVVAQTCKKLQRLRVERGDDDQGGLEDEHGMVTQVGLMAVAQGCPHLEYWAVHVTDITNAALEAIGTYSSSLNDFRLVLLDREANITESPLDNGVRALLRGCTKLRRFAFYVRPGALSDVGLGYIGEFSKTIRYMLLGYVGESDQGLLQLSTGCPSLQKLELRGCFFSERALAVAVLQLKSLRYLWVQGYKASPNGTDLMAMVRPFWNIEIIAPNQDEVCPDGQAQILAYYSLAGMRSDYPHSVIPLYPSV

T6: OsCOI2(F91Y) (Oryza sativa) (UniProt Q84QA7)
T6 sequence: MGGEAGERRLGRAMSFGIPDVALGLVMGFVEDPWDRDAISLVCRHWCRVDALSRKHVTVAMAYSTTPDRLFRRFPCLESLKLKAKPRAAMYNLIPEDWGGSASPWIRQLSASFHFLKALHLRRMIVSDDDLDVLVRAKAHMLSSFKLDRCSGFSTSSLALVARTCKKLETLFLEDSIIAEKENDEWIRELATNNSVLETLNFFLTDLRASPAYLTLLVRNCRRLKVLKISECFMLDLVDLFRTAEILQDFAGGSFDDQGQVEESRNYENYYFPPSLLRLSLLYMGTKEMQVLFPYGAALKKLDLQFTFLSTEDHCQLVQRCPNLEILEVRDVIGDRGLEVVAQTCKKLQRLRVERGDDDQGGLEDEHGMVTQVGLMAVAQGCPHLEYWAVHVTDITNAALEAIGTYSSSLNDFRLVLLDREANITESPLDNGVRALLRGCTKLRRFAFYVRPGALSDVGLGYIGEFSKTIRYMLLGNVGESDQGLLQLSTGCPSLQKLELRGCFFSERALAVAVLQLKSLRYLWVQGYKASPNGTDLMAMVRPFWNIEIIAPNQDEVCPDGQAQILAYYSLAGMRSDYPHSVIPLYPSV

T7: OsCOI1b (Oryza sativa) (UniProt Q60EH4)
T7 sequence: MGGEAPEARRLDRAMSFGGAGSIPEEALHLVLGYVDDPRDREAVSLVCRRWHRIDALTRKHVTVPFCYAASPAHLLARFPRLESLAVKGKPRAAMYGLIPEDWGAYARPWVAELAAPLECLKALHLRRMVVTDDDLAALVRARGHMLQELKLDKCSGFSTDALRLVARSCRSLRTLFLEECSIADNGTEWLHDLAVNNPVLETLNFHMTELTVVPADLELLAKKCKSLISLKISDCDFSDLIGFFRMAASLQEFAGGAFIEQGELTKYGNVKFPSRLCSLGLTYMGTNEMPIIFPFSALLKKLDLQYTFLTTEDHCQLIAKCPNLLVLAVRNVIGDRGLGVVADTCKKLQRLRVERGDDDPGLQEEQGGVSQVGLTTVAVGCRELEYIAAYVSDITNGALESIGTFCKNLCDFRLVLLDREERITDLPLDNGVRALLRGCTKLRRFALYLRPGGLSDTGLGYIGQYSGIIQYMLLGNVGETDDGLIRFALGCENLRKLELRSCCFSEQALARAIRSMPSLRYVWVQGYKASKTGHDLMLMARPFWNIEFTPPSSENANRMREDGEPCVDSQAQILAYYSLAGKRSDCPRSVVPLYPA


How the values were obtained:
Test in all cases: two-hybrid; OsCOIs as baits in pGBKT7, OsJAZs or JAZs as preys in pGADT7, co-transformed into S. cerevisiae AH109; growth on SD without Ade, His, Leu and Trp (QDO) with 100 µM coronatine, 7 days; graded strong (+++), medium (++), weak (+), undetectable (−)
[1] = biological target: T1, OsCOI1a (Oryza sativa)
[2] = biological target: T2, OsCOI1a(N475Y) (Oryza sativa)
[3] = biological target: T3, OsCOI2 (Oryza sativa)
[4] = biological target: T4, OsCOI2(H391Y) (Oryza sativa)
[5] = biological target: T5, OsCOI2(N477Y) (Oryza sativa)
[6] = biological target: T6, OsCOI2(F91Y) (Oryza sativa)
[7] = biological target: T7, OsCOI1b (Oryza sativa)

binding [1]	binding [2]	binding [3]	binding [4]	binding [5]	binding [6]	binding [7]	Binder
no binding	no binding	no binding	–	–	–	–	OsJAZ7 (protein, UniProt Q69P94 1-232) MAGRATATATAAGKDRSSFAVTCSLLSQFLKEKKGGGGGLQGLGLGLRPAPAAPPAAGAGGAFRPPPTTMNLLSGLDAPAVEVEPNTAETAADELPLIKAPADQQSDESASEAAGEKAQQLTIFYGGKVVVFENFPSTKVKDLLQIVSTGDGVDKNTGTAATQSLPRPAHNSLPDLPIARRNSLHRFLEKRKGRMNANAPYQANCTAAPSKQANGDKSWLGFGQEMTIKQEI
no binding	–	no binding	no binding	no binding	no binding	–	OsJAZ10 (protein, UniProt Q7XPM8 1-216) MDLLEKKNIKKGGEVEEEVARKGEERKEEEVVVEEKSHQQQQQQGEEELVGLSLAGGRPKVFPMSSPPPNPSQLTIFYGGSVCVYDSVPPEKAQAIMLIAAAAAAAASATKSNAAIAVKPPVMPAANATQAAVSPVLTRSLSLQSTSVATGQPQVAADPSSICKLQADLPIARRHSLQRFLEKRRDRLVSKAPYPTKSSEGMEASGMEVTAEGKAQ
–	–	–	–	–	–	no binding	OsJAZ11 (protein, UniProt Q7XV97 1-188) MSTRAPVELDFLGLRAAAADADDRHAKSGGSSASSSSSIRGMETSAIARIGPHLLRRVIAAAGPPPPPSTAPVPEEMPGAAAAAAPMTLFYNGSVAVFDVSHDKAEAIMRMATEATKAKGLARGNAIVGNFAKEPLTRTKSLQRFLSKRKERLTSLGPYQVGGPAAVGATTSTTTKSFLAKEEEHTAS
